# From article PMC10807196
# Protein sequences, listed by entry. Tags and fused reporters are not part of them. Residues count along the entry.
# UniProt Q12864, residues 23-832: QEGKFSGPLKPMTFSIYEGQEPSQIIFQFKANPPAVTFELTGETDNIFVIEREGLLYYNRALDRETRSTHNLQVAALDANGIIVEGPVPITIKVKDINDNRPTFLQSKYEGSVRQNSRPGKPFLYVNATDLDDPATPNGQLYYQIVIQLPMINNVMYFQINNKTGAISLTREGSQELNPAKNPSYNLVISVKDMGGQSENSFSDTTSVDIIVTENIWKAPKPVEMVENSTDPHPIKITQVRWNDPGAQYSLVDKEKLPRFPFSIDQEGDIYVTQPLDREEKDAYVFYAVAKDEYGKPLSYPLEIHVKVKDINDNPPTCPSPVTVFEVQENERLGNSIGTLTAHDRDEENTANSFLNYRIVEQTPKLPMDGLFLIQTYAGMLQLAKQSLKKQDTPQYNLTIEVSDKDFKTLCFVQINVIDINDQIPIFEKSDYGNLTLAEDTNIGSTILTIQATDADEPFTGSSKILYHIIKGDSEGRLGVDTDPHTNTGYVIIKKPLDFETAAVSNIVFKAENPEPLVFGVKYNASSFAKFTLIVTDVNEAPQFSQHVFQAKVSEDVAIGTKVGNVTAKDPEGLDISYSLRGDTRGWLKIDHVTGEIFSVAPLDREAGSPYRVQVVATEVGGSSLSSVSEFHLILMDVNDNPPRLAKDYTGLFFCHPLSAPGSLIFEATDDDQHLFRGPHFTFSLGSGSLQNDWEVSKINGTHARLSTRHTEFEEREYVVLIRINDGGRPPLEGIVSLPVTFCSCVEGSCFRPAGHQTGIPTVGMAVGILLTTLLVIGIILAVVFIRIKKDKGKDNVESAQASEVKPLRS
# UniProt P46940: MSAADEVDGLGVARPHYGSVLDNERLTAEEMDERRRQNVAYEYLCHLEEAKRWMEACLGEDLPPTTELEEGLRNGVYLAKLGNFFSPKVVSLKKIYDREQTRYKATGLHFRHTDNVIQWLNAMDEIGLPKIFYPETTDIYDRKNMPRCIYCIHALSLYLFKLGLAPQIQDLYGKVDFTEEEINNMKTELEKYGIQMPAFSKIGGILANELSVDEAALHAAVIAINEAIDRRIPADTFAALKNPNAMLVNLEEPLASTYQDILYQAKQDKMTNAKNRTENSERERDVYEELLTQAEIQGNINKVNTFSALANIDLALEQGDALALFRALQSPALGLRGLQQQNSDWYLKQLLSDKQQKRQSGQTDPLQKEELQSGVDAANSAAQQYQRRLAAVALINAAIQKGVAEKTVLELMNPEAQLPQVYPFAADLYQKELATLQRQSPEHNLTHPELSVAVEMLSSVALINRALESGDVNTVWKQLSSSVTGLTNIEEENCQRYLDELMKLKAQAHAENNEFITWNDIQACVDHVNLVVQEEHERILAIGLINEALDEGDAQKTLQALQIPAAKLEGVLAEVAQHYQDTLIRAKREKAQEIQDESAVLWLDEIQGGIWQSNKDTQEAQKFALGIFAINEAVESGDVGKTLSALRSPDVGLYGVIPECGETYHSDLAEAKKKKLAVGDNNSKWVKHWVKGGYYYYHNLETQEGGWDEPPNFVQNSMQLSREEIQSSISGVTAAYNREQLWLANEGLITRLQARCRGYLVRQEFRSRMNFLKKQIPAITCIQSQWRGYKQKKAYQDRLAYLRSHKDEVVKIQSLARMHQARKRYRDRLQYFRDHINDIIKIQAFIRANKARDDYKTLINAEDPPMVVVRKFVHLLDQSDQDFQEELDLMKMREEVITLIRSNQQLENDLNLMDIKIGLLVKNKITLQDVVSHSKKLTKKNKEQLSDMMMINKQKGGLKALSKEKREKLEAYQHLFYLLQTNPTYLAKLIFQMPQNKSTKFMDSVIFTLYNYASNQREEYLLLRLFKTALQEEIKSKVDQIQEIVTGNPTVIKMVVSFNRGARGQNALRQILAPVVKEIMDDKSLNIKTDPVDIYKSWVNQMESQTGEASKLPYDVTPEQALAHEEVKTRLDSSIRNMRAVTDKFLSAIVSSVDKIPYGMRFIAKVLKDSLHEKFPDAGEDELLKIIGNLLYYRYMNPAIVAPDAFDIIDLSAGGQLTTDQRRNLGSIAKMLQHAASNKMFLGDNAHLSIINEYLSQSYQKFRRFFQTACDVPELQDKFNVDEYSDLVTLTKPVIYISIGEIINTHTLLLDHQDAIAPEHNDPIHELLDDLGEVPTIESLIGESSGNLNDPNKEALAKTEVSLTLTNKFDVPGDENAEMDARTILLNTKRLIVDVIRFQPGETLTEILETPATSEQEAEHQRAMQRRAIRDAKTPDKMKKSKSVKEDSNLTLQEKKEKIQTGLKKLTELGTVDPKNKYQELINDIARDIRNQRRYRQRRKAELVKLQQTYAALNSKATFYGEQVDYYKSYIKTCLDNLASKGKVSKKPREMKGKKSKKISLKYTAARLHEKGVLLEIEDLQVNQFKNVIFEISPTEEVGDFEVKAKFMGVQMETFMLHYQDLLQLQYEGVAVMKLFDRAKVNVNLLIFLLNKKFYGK
# UniProt Q9P258: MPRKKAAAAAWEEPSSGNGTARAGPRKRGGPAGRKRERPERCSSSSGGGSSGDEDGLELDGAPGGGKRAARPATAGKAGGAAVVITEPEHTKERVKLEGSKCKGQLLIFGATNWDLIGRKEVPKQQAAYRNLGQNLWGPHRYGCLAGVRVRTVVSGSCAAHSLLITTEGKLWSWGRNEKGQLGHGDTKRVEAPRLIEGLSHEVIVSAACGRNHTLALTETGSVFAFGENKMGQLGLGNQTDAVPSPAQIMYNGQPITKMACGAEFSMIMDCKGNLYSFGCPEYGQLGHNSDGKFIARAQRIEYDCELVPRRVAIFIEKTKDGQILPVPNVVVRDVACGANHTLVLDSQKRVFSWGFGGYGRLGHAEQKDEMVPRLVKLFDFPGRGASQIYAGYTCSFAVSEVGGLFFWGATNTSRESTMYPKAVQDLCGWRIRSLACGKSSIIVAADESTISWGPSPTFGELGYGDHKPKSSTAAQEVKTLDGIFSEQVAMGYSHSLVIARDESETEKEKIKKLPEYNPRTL
# UniProt P07737: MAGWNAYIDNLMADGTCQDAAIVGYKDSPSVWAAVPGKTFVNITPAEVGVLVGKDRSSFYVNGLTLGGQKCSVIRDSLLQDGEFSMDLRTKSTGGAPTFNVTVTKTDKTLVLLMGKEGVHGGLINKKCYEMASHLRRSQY
# UniProt P60953: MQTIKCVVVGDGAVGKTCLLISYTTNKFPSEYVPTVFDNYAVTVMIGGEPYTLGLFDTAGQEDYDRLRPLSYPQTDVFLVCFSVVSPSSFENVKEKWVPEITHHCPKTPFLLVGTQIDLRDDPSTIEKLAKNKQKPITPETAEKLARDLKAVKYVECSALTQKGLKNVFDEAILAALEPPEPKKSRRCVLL
# UniProt P35579: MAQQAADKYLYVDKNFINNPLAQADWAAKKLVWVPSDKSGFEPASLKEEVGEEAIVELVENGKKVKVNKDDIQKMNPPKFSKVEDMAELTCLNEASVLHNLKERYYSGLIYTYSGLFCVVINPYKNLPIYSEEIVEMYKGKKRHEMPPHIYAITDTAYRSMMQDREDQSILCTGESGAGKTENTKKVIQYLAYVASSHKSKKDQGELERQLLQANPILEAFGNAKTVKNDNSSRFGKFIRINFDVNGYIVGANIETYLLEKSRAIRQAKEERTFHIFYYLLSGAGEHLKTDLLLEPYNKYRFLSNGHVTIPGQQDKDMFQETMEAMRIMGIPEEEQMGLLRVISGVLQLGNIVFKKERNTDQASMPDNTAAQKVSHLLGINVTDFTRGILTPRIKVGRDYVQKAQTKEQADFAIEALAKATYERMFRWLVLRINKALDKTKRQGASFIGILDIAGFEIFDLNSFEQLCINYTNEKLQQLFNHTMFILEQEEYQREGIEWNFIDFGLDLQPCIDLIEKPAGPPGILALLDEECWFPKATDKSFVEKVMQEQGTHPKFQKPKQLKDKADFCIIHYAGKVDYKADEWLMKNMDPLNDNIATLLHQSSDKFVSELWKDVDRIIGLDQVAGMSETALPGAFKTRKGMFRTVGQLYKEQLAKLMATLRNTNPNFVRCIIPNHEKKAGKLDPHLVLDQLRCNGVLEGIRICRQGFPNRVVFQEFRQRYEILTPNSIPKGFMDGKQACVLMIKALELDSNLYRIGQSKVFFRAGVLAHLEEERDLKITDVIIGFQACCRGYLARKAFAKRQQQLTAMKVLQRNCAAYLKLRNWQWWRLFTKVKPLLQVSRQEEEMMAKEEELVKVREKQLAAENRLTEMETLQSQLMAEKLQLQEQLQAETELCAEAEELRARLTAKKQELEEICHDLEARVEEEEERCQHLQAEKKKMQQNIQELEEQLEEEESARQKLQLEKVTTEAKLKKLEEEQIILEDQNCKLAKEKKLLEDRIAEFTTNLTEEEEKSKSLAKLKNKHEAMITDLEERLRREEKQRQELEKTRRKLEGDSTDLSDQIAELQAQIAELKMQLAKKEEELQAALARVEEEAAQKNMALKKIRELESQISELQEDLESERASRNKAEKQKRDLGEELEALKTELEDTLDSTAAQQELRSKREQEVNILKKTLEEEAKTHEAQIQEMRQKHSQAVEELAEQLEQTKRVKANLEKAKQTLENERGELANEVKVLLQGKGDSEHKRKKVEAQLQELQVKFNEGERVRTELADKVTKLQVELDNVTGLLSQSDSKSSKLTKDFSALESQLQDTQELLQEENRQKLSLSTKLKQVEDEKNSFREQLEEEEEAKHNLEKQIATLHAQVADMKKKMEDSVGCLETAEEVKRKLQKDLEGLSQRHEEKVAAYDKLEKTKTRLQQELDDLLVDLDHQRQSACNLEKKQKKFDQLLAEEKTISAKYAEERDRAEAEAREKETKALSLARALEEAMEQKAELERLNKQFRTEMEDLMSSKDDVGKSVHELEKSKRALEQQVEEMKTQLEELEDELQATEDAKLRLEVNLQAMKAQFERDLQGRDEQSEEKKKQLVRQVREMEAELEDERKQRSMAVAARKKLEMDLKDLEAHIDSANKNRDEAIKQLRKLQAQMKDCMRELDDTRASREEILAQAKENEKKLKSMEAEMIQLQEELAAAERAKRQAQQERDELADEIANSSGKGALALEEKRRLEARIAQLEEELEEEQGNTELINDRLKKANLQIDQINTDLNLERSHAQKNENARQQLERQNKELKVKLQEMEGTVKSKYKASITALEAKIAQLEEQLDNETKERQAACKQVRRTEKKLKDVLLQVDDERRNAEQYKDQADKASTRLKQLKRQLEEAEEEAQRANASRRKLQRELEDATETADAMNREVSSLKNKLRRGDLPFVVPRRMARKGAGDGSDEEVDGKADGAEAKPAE
# UniProt P07437: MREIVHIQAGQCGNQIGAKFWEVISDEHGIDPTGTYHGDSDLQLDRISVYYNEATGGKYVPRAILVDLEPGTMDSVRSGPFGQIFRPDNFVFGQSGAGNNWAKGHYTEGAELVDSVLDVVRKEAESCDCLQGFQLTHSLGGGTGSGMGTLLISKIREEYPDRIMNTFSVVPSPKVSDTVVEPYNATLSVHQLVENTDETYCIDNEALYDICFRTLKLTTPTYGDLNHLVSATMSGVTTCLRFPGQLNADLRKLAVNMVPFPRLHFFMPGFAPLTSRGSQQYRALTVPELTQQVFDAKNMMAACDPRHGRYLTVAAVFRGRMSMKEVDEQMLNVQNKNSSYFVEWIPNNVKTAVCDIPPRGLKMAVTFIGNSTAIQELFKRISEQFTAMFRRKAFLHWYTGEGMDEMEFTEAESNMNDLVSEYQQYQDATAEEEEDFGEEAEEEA
# UniProt Q9BQE3: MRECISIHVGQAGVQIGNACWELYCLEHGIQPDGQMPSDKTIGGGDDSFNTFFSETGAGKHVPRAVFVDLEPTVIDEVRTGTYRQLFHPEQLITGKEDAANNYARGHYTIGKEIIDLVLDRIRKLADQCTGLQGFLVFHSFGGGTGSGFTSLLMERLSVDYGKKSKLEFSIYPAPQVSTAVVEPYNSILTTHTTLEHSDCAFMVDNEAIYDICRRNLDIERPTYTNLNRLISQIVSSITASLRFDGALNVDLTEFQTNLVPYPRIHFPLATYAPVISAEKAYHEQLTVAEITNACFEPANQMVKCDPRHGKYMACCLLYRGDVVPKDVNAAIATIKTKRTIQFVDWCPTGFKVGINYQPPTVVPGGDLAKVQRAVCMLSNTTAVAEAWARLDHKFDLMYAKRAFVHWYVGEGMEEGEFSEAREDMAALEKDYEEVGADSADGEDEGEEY
# These are yes or no findings as the source states them, for the method shown. Binding seen in cells or lysates may run through a third protein. These calls come from enrichment with a bait or labelling near it, and not all partners need be listed.
# B1: desmocollin-1 (DSC1) (protein, UniProt Q08554 135-894)
# chain: RWAPIPASLMENSLGPFPQHVQQIQSDAAQNYTIFYSISGPGVDKEPFNLFYIEKDTGDIFCTRSIDREKYEQFALYGYATTADGYAPEYPLPLIIKIEDDNDNAPYFEHRVTIFTVPENCRSGTSVGKVTATDLDEPDTLHTRLKYKILQQIPDHPKHFSIHPDTGVITTTTPFLDREKCDTYQLIMEVRDMGGQPFGLFNTGTITISLEDENDNPPSFTETSYVTEVEENRIDVEILRMKVQDQDLPNTPHSKAVYKILQGNENGNFIISTDPNTNEGVLCVVKPLNYEVNRQVILQVGVINEAQFSKAASSQTPTMCTTTVTVKIIDSDEGPECHPPVKVIQSQDGFPAGQELLGYKALDPEISSGEGLRYQKLGDEDNWFEINQHTGDLRTLKVLDRESKFVKNNQYNISVVAVDAVGRSCTGTLVVHLDDYNDHAPQIDKEVTICQNNEDFAVLKPVDPDGPENGPPFQFFLDNSASKNWNIEEKDGKTAILRQRQNLDYNYYSVPIQIKDRHGLVATHMLTVRVCDCSTPSECRMKDKSTRDVRPNVILGRWAILAMVLGSVLLLCILFTCFCVTAKRTVKKCFPEDIAQQNLIVSNTEGPGEEVTEANIRLPMQTSNICDTSMSVGTVGGQGIKTQQSFEMVKGGYTLDSNKGGGHQTLESVKGVGQGDTGRYAYTDWQSFTQPRLGEKVYLCGQDEEHKHCEDYVCSYNYEGKGSLAGSVGCCSDRQEEEGLEFLDHLEPKFRTLAKTCIKK
# B2: junction plakoglobin (JUP) (protein, UniProt P14923 1-745)
# chain: MEVMNLMEQPIKVTEWQQTYTYDSGIHSGANTCVPSVSSKGIMEEDEACGRQYTLKKTTTYTQGVPPSQGDLEYQMSTTARAKRVREAMCPGVSGEDSSLLLATQVEGQATNLQRLAEPSQLLKSAIVHLINYQDDAELATRALPELTKLLNDEDPVVVTKAAMIVNQLSKKEASRRALMGSPQLVAAVVRTMQNTSDLDTARCTTSILHNLSHHREGLLAIFKSGGIPALVRMLSSPVESVLFYAITTLHNLLLYQEGAKMAVRLADGLQKMVPLLNKNNPKFLAITTDCLQLLAYGNQESKLIILANGGPQALVQIMRNYSYEKLLWTTSRVLKVLSVCPSNKPAIVEAGGMQALGKHLTSNSPRLVQNCLWTLRNLSDVATKQEGLESVLKILVNQLSVDDVNVLTCATGTLSNLTCNNSKNKTLVTQNSGVEALIHAILRAGDKDDITEPAVCALRHLTSRHPEAEMAQNSVRLNYGIPAIVKLLNQPNQWPLVKATIGLIRNLALCPANHAPLQEAAVIPRLVQLLVKAHQDAQRHVAAGTQQPYTDGVRMEEIVEGCTGALHILARDPMNRMEIFRLNTIPLFVQLLYSSVENIQRVAAGVLCELAQDKEAADAIDAEGASAPLMELLHSRNEGTATYAAAVLFRISEDKNPDYRKRVSVELTNSLFKHDPAAWEAAQSMIPINEPYGDDMDATYRPMYSSDVPLDPLEMHMDMDGDYPIDTYSDGLRPPYPTADHMLA
# Biological target: Cadherin-17 (CDH17), full-length, overexpressed (human) (UniProt Q12864)
# Assay: affinity purification with mass spectrometry; lysates of RKO and HT-29 cells transfected with CDH17 vectors, immunoprecipitated with anti-CDH17 or control antibody; in-gel trypsin digestion; positive when at least twice more unique peptides than the control IP
row,Molecule,binding
1,B1,binds
2,B2,binds

# Biological target: Cadherin-17 (CDH17), full-length, overexpressed (human) (UniProt Q12864)
# Assay: as above
# Remark: another data set of the same source
row,Molecule,binding
1,IQGAP1 (from UniProt P46940 1-1657),binds
2,SPTAN1 (from UniProt Q13813 1-2472),binds
3,RCC2 (from UniProt Q9P258 1-522),binds
4,PFN1 (from UniProt P07737 1-140),binds
5,TUBB2C (from UniProt P68371 1-445),binds
6,ACTN1 (from UniProt P12814 1-892),binds
7,CDC42 (from UniProt P60953 1-191),binds
8,MYH9 (from UniProt P35579 1-1960),binds
9,TUBB5 (from UniProt P07437 1-444),binds
10,TLN1 (from UniProt Q9Y490 1-2541),binds
11,TUBA1C (from UniProt Q9BQE3 1-449),binds
